The values that follow come from article PMC2730530.

In assay [1] the target is POB1 (endogenous, rat) (rat (endogenous in rat brain)). Description: co-IP; S2 fraction of adult rat brain immunoprecipitated and immunoblotted.
Assay [2] shares this target. As to the kind of experiment: co-IP; lysates of cultured neurons (>DIV 18), with or without NMDA treatment; immunoprecipitated with PSD-95 or POB1 antibodies and immunoblotted.

No constants are given. Whether binding was seen depends on the method and setting. Binding seen in cells or lysates may run through a third protein. Binding calls can cover weak binding; strength is not graded here.

B1: RalBP1 (endogenous, rat) (protein, UniProt Q62796 1-647)
chain: MTECFLPPTSSPSEHRRAEHGSGLTRTPSSEEISPTKFPELYRTGEPSPPHDILHEPPDIVSDDEKDHGKKKGKFKKKEKRTEGYVAFQEDSSGDEAESPSKMKRSKGIHVFKKPSFSKKKEKDFKIKEKPKEEKHKEEKHKEEKHKEKKCKDFTAADVVKQWKEKKKKKKPTQEPEVPQTDAPSLRPIFGAPFADAVERTMMYDGIRLPAVFRECVDYMEKHGMKCEGIYRVSGIKSKVDELKAAYDREESPNLEEYEPNTVASLLKQYLRDLPENLLTKELMPRFEEACGRTTEVEKVQEFQRLLRELPEYNHLLLSWLIVHMDHVIAKELETKMNIQNISIVLSPTVQISNRVLYVLFTHVQELFGTVLLKQVTRPLRWSNMATMPTLPETQAGIKEEIRRQEFLLNCLHRDLQGGIKDFSKEERLWEVQRILTALKRKLREAKRQECETKIAQEIASLSKEDVSKEETNENEEVINILLAQENEILTEQEELLAMEQFLRRQIASEKEEIDRLRAEIAEIQSRQHGRSETEEYSSDSESESEDEEELQIILEDLQRQNEELEIKNNHLNQAVHEEREAIVELRVQLRLLQMLRAKSEQQLQEEEEPERRGGTGPLPCEGVLEVRAAKEQAKPSPSKDRKETPI
Turning to B1, the binding result in assay [1] and in assay [2] was “binds” each time.
